± gives the standard deviation of the averaged measurements. The list shows a part of the results.
Compound: Nc1nc2c(ncn2[C@@H]2O[C@H](COP(=O)(O)OP(=O)(O)OP(=O)(O)O)[C@@H](O)[C@H]2O)c(=O)[nH]1 [guanosine triphosphate]
Experiment: NP40-soluble protein abundance relative to vehicle (solubility fold change) (ratio); higher = more soluble protein in presence of GTP
Experimental: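 Solubility proteome profiling in Jurkat crude lysate. Lysate was treated with Mg-GTP (0.1-10 mM) for 10 min at room temperature and 3 min at 37 °C, then solubilised with 0.8% NP40 and benzonase, followed by ultracentrifugation. Proteins were quantified by TMT10 LC-MS/MS; the value is the NP40-soluble abundance relative to the NP40-processed vehicle, from 3 independent experiments.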

Chains of the proteins cited; added tags and fusions are not shown. Lines headed by an entry give the natural chain unless they say otherwise; changes in a name come on top.
UniProt P35249, whole entry: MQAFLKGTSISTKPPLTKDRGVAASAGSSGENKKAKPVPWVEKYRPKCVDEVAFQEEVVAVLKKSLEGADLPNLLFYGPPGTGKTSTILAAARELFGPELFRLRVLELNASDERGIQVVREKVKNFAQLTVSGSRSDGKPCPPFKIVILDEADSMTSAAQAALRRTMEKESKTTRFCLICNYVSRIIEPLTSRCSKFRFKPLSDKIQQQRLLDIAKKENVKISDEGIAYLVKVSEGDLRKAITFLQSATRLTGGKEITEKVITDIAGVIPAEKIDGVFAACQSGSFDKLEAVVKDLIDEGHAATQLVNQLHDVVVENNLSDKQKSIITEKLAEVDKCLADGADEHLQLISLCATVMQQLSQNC
UniProt P28072: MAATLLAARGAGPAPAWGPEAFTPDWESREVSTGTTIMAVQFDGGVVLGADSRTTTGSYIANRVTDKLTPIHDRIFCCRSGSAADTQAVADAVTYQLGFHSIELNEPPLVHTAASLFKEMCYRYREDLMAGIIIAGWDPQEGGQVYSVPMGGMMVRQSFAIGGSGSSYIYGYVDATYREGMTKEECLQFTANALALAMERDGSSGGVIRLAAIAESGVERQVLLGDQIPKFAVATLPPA
UniProt P31040: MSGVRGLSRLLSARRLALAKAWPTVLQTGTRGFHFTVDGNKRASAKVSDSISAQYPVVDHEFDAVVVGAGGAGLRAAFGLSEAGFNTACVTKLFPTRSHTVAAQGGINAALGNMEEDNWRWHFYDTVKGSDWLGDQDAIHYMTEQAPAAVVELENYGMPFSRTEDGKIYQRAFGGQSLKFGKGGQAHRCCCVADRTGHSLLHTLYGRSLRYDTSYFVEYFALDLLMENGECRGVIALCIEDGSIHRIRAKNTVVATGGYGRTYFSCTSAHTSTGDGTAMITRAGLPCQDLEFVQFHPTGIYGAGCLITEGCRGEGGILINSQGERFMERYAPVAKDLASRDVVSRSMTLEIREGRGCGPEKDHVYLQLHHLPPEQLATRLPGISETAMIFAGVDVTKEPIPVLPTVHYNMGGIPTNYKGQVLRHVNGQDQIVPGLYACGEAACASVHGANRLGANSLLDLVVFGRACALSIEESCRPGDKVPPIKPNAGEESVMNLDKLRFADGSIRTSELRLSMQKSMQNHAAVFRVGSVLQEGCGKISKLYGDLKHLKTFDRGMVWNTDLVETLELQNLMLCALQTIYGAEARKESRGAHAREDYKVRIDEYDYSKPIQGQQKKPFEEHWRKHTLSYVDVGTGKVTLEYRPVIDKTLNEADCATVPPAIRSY
UniProt P29374: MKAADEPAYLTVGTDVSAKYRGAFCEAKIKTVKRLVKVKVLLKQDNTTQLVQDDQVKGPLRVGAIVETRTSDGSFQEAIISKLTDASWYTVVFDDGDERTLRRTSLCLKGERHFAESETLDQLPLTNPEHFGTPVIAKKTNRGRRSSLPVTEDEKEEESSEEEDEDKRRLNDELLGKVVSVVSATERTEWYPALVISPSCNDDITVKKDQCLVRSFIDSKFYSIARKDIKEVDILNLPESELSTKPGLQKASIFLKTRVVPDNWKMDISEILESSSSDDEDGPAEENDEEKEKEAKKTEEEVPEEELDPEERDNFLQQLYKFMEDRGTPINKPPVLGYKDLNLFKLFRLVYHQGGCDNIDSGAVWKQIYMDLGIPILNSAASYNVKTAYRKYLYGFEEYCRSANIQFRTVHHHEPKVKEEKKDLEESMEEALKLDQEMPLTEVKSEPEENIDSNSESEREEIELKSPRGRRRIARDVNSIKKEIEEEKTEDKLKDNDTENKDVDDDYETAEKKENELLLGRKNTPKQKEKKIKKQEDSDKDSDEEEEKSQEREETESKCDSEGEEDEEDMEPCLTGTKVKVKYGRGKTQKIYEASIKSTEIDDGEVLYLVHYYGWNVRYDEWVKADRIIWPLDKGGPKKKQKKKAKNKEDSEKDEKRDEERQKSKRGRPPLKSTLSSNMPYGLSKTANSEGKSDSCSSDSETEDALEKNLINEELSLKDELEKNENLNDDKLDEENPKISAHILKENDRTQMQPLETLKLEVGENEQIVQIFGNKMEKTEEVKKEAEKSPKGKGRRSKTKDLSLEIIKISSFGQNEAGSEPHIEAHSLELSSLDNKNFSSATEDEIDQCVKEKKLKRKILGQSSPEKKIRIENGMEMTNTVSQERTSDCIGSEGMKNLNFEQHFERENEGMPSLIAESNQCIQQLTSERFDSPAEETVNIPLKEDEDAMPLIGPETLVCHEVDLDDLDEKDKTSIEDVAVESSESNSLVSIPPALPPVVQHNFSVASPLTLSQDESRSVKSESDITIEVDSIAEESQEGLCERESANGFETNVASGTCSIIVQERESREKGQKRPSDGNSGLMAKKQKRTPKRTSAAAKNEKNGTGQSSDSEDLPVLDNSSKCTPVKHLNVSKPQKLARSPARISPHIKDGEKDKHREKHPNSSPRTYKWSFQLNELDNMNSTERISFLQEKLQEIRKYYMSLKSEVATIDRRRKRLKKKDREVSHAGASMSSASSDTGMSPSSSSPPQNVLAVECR
UniProt P49903: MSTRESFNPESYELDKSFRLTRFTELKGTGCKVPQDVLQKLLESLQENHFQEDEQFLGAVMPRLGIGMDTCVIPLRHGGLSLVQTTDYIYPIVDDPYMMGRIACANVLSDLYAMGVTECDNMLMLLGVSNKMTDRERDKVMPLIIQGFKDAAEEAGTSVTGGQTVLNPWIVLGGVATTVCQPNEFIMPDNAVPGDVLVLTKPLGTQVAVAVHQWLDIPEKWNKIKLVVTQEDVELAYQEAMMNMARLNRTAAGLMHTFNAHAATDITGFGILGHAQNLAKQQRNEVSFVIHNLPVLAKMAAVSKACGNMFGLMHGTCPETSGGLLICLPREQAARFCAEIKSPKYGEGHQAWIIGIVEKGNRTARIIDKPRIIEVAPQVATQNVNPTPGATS

| Target | NP40-soluble protein abundance (concentration: 0.1mM) | NP40-soluble protein abundance (concentration: 0.5mM) | NP40-soluble protein abundance (concentration: 1mM) | NP40-soluble protein abundance (concentration: 2mM) | NP40-soluble protein abundance (concentration: 4mM) | NP40-soluble protein abundance (concentration: 6mM) | NP40-soluble protein abundance (concentration: 8mM) | NP40-soluble protein abundance (concentration: 10mM) |
| --- | --- | --- | --- | --- | --- | --- | --- | --- |
| RFC4 (UniProt P35249) | 0.984 ± 0.017 | 1.025 ± 0.0049 | 1.12 ± 0.045 | 1.1 ± 0.06 | 1.16 ± 0.064 | 1.19 ± 0.053 | 1.21 ± 0.047 | 1.19 ± 0.11 |
| PSMB6 (UniProt P28072) | 0.98 ± 0.066 | 1.04 ± 0.088 | 1 ± 0.11 | 1.07 ± 0.14 | 1.03 ± 0.14 | 1.08 ± 0.18 | 1.05 ± 0.14 | 1.05 ± 0.15 |
| SDHA (UniProt P31040) | 0.985 ± 0.019 | 1.03 ± 0.032 | 0.947 ± 0.018 | 0.933 ± 0.028 | 0.91 ± 0.027 | 0.928 ± 0.025 | 0.905 ± 0.022 | 0.886 ± 0.041 |
| UniProt P29374 and related entries | 0.965 ± 0.053 | 1.04 ± 0.035 | 1.04 ± 0.05 | 1.06 ± 0.093 | 1.1 ± 0.1 | 1.1 ± 0.079 | 1.2 ± 0.14 | 1.19 ± 0.18 |
| UniProt P49903 and related entries | 1 ± 0.011 | 1.02 ± 0.025 | 0.981 ± 0.018 | 0.9601 ± 0.0077 | 0.986 ± 0.023 | 0.947 ± 0.016 | 0.956 ± 0.018 | 0.925 ± 0.061 |
